Data as given in PMC8639993.

Protein sequences, listed by entry. Tags and fused reporters are not part of them.
UniProt Q5VTD9: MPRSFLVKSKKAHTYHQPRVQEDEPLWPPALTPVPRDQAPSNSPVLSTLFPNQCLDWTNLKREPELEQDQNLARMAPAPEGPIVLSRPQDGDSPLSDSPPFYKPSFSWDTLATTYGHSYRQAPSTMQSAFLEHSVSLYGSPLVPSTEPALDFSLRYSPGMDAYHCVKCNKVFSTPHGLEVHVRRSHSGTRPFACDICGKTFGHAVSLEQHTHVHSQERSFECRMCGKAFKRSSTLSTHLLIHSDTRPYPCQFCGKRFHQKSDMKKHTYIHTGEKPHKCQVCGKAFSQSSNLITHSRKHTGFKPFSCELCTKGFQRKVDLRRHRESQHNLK
UniProt Q99684: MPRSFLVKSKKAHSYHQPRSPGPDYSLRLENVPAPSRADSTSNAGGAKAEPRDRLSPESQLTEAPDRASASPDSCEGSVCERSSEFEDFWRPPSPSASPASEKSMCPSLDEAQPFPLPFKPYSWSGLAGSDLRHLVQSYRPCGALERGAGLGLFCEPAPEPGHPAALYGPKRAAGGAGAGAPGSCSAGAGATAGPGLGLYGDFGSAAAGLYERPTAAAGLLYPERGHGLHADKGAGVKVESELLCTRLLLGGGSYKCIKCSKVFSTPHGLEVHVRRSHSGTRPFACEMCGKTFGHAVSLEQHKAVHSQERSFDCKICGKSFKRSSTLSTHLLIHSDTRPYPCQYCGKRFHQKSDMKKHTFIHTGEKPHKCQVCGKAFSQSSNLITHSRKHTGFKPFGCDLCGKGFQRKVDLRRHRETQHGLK
UniProt Q8IZ40: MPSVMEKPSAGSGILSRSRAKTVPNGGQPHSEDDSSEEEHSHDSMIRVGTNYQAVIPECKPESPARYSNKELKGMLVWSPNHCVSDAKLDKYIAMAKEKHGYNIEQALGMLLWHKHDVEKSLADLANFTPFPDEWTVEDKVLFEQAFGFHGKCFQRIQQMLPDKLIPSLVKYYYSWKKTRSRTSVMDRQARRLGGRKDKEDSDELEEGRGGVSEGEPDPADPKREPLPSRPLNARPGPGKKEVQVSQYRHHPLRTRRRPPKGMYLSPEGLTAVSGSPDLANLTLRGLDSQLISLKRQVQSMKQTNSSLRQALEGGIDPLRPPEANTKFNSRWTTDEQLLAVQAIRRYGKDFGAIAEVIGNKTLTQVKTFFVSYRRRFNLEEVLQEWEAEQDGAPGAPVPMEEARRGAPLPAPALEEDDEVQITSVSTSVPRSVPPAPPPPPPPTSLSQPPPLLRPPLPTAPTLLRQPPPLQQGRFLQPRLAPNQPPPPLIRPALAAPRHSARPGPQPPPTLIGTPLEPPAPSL
UniProt Q14839: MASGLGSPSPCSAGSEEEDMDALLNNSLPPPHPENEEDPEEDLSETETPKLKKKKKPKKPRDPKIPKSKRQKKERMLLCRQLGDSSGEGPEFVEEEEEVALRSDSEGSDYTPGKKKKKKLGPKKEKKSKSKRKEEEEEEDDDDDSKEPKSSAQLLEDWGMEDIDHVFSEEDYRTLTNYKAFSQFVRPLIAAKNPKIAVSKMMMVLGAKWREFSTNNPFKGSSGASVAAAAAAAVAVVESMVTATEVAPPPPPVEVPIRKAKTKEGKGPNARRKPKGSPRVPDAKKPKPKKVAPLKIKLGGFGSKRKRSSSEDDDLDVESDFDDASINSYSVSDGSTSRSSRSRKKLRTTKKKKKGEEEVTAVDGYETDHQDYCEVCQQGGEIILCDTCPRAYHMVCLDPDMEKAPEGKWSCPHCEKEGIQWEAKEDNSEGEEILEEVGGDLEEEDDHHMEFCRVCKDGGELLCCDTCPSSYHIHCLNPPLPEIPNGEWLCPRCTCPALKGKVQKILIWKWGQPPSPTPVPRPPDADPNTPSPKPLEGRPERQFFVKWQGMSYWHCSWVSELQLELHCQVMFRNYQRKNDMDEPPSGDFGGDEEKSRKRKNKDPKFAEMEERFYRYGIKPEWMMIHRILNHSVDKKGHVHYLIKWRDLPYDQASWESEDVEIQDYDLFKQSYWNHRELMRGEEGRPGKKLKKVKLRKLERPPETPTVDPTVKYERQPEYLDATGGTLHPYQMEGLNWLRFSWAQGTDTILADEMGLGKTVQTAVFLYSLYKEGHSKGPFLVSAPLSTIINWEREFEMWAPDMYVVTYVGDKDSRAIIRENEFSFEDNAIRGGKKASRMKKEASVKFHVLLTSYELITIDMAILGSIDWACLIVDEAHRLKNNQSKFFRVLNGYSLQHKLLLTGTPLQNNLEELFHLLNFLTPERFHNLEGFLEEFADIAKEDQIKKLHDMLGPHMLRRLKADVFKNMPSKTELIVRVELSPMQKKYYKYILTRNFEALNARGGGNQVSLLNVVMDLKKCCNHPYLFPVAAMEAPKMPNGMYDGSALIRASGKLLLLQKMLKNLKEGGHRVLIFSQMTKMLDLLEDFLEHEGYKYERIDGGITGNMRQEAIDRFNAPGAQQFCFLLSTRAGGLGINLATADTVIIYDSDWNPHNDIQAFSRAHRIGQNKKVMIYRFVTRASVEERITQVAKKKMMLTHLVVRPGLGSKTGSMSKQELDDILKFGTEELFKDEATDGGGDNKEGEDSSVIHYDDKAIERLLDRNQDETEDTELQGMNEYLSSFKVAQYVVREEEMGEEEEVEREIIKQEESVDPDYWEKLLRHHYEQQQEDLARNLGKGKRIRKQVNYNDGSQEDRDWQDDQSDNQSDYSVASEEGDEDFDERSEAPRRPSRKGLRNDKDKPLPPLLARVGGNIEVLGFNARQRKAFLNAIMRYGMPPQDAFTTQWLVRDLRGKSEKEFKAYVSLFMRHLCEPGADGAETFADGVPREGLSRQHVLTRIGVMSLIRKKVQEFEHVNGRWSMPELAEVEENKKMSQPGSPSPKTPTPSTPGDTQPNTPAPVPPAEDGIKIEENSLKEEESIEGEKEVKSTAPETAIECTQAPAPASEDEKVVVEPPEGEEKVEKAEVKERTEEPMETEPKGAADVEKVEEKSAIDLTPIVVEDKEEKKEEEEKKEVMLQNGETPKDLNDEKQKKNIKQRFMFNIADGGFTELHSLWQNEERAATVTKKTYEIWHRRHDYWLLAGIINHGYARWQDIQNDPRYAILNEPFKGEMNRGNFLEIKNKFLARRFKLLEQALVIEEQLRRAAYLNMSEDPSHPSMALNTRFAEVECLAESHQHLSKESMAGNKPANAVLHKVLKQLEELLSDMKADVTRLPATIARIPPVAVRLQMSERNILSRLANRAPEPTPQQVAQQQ
UniProt Q09028: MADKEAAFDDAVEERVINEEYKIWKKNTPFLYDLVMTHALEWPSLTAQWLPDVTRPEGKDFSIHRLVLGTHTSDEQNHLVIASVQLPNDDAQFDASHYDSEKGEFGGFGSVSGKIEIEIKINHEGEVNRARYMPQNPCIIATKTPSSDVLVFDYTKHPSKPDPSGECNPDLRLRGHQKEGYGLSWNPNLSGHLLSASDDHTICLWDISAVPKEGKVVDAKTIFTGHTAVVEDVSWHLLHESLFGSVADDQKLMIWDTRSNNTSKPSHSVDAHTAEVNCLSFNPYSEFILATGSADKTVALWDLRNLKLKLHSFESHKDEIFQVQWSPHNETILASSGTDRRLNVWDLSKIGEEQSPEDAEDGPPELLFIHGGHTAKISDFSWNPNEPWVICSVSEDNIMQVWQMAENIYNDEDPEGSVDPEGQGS
UniProt Q12873: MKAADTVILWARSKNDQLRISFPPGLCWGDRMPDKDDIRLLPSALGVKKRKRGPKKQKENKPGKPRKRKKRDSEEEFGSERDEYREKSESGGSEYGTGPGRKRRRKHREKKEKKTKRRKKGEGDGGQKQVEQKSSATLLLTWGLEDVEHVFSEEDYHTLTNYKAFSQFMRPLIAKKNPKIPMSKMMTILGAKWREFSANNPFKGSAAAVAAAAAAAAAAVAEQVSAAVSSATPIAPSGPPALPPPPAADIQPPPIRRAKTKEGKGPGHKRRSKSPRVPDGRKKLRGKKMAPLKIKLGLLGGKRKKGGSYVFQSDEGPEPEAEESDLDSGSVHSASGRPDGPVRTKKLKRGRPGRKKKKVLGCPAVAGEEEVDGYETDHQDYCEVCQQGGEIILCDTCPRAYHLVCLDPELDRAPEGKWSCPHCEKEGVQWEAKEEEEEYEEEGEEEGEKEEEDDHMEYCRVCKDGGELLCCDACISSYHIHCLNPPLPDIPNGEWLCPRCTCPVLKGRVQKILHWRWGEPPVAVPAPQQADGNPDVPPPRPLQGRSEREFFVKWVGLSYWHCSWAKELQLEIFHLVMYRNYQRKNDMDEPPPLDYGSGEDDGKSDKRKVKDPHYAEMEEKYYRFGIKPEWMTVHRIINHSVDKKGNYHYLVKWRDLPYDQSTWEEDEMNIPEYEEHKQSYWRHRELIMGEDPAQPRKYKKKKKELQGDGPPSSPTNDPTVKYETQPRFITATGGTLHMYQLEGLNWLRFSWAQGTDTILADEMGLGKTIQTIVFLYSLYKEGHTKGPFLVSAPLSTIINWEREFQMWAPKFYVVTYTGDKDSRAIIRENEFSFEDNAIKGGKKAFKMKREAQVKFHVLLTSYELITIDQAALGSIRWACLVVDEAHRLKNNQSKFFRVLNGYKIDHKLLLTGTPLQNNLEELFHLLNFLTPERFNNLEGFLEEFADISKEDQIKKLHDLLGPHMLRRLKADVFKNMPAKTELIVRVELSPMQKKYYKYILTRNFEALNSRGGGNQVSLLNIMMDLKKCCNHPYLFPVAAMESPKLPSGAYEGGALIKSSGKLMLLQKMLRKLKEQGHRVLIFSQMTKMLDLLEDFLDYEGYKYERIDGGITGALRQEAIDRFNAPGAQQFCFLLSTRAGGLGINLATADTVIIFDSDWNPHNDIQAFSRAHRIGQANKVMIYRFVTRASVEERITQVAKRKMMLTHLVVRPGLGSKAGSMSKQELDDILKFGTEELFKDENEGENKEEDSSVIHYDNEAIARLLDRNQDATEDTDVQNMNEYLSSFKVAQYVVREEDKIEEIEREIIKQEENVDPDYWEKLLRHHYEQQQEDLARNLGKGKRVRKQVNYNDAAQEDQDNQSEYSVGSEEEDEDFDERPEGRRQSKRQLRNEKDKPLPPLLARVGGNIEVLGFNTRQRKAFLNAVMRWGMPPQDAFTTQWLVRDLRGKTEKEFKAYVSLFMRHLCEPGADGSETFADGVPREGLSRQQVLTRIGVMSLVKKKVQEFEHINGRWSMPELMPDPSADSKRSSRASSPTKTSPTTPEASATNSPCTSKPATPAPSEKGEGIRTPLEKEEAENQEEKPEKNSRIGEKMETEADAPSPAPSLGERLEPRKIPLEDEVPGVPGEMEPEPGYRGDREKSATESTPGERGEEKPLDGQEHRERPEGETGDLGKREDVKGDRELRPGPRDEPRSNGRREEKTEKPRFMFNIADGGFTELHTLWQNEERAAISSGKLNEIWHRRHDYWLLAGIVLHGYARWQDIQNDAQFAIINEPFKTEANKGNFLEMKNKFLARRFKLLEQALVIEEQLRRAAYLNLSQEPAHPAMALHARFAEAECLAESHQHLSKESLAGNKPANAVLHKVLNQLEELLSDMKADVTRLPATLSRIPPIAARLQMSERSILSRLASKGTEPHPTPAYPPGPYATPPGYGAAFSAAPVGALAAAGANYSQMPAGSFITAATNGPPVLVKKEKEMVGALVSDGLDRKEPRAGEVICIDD
UniProt Q13547: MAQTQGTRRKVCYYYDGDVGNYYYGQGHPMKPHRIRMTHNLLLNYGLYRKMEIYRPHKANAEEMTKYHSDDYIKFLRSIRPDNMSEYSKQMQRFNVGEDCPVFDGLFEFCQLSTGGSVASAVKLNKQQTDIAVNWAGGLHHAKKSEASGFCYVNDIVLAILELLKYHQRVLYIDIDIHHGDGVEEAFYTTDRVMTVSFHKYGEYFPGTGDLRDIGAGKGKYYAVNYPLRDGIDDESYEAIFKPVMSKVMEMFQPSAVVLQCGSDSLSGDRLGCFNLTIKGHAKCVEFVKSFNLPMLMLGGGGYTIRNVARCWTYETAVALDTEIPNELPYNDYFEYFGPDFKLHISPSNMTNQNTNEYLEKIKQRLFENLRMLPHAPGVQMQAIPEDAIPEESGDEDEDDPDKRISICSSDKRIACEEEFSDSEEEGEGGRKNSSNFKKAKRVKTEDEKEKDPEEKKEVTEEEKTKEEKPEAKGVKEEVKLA
UniProt Q92769: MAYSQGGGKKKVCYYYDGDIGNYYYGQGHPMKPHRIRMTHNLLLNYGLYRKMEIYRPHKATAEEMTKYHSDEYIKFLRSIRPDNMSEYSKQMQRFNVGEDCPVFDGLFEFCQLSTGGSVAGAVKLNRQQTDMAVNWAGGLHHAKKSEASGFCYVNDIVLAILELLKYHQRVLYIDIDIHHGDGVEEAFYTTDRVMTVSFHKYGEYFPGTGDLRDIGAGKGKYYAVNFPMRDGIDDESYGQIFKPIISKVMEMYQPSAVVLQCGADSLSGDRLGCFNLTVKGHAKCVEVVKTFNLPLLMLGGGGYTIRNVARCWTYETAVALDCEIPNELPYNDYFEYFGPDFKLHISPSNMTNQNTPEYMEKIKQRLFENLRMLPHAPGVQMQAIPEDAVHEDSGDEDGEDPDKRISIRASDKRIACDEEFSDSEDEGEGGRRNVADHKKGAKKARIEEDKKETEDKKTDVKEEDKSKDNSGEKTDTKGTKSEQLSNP

Legend:
[1] = biological target: GFI1BWT-BirA*-Flag (UniProt Q5VTD9); experiment: proximity labelling; BioID with GFI1BWT-BirA*-Flag; samples generated in the authors' previous work (ref. 37), processed with SAINT/ProHits and shown here beside GFI1 (Fig. 1C)
[2] = biological target: GFI1WT-BirA*-Flag (UniProt Q99684); experiment: proximity labelling; BioID: Flp-In T-REx HEK293T cells expressing GFI1WT-BirA*-Flag or GFI1ΔSNAG-BirA*-Flag, 50 µM biotin and 1 µg/ml tetracycline for 24 h; RIPA lysis with benzonase; streptavidin-sepharose; mass spectrometry; SAINT filtering against BirA*-Flag controls
[3] = biological target: GFI1-Flag fusion protein (full-length Flag-tagged GFI1) (UniProt Q99684); experiment: affinity purification with mass spectrometry; Flag-tagged GFI1 or GFI1B expressed in HEK293T cells as bait; co-purified proteins identified by mass spectrometry (refs. 36, 37 cited)
[4] = biological target: GFI1B-Flag-tagged fusion protein (UniProt Q5VTD9); experiment: as above

Substance | binding [1] | binding [2] | binding [3] | binding [4]
RCOR2 (from UniProt Q8IZ40 1-523) | binds | binds | binds | binds
RCOR3 (from UniProt Q9P2K3 1-495) | binds | binds | binds | binds
chromodomain helicase DNA binding protein 4 (CHD4) (from UniProt Q14839 1-1912) | binds | binds | binds | binds
retinoblastoma binding protein 4 (RBBP4) (from UniProt Q09028 1-425) | binds | binds | binds | binds

Continued, values first:

binding [1] | binding [2] | binding [3] | binding [4] | Substance
binds | binds | binds | binds | chromodomain helicase DNA binding protein 3 (CHD3) (from UniProt Q12873 1-2000)
– | binds | binds | – | RCOR1 (from UniProt Q9UKL0 1-485)
binds | binds | – | – | GATA Zinc Finger Domain Containing 2B (GATAD2B) (from UniProt Q8WXI9 1-593)
binds | binds | binds | binds | HDAC1 (from UniProt Q13547 1-482) (enzyme)
binds | binds | – | – | HDAC2 (from UniProt Q92769 1-488) (enzyme)

No constants are given. Whether binding was seen depends on the method and setting. Binding seen in cells or lysates may run through a third protein. These calls come from enrichment with a bait or labelling near it, and not all partners need be listed.
